In patent US20120115830A1:
No constants are given. Whether binding was seen depends on the method and setting. Some results given as binding are weak or reduced against the parent protein; the word gives no strength.

Protein sequences, listed by entry. Tags and fused reporters are not part of them.
UniProt Q9BYM8: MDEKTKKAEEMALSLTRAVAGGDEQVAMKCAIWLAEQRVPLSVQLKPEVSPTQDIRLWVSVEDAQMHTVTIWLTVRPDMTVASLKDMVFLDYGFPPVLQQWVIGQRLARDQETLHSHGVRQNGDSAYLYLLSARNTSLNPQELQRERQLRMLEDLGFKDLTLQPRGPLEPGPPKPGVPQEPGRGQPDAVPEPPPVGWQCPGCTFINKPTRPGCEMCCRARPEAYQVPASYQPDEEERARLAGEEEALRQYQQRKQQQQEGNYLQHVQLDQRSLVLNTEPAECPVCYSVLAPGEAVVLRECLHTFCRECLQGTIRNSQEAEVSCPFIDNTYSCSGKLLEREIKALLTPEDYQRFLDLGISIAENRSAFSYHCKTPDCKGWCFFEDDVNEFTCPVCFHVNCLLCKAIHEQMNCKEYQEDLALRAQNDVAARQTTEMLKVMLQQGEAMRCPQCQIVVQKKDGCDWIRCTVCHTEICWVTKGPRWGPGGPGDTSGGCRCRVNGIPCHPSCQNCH

Legend:
[1] = molecular target: T1, USP19 cloned in-frame into pACT plasmid (UniProt O94966); assay: mammalian two-hybrid (FIG. 2c-d)
T1 sequence (looked up): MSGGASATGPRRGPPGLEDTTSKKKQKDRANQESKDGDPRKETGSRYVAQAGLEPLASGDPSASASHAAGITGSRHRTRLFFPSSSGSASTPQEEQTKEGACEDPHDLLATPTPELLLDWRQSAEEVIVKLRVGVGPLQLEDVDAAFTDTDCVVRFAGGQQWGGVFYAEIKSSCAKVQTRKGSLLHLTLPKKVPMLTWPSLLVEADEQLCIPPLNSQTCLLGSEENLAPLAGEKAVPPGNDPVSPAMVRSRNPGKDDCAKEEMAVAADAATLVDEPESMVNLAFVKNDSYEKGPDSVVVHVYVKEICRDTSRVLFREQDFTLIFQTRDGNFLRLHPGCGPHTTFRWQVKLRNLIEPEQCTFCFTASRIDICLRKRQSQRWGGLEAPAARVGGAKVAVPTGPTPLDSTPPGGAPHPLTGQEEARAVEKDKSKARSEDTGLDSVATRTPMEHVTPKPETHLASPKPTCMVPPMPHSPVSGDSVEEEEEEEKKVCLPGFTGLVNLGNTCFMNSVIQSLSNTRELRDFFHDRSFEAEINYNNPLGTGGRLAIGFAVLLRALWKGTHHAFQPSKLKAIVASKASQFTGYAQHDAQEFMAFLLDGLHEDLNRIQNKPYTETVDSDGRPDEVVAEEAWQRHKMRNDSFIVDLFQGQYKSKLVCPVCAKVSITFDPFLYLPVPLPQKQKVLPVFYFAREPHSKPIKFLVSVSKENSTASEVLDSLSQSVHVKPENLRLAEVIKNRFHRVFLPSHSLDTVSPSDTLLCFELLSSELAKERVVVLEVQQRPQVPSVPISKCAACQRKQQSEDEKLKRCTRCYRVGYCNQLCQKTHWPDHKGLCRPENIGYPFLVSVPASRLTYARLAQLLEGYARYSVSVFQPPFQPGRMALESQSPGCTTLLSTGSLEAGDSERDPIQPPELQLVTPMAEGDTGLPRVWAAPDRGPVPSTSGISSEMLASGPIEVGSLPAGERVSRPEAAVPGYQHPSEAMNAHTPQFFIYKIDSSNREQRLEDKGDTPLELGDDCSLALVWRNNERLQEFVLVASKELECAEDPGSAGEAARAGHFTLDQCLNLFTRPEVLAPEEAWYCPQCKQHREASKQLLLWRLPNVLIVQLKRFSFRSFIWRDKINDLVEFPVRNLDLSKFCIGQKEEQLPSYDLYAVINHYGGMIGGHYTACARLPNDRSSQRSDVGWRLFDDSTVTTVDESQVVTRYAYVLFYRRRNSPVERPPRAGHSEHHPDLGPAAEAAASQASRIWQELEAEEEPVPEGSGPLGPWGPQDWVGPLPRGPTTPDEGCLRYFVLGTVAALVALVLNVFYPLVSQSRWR

[2] = molecular target: XAP3 cloned in-frame into pACT plasmid (UniProt Q9BYM8); assay: mammalian two-hybrid (FIG. 2c-d)
[3] = molecular target: T1, USP19 cloned in-frame into pACT plasmid; assay: mammalian two-hybrid in L132 cells
[4] = molecular target: XAP3 cloned in-frame into pACT plasmid (UniProt Q9BYM8); assay: mammalian two-hybrid in L132 cells

binding [1]: binds | binding [2]: binds | binding [3]: binds | binding [4]: binds
B1: Full length FKBPL cloned in-frame into pBIND plasmid (protein, not shown: large carriers)
chain: METPPVNTIGEKDTSQPQQEWEKNLRENLDSVIQIRQQPRDPPTETLELEVSPDPASQILEHTQGAEKLVAELEGDSHKSHGSTSQMPEALQASDLWYCPDGSFVKKIVIRGHGLDKPKLGSCCRVLALGFPFGSGPPEGWTELTMGVGPWREETWGELIEKCLESMCQGEEAELQLPGHSGPPVRLTLASFTQGRDSWELETSEKEALAREERARGTELFRAGNPEGAARCYGRALRLLLTLPPPGPPERTVLHANLAACQLLLGQPQLAAQSCDRVLEREPGHLKALYRRGVAQAALGNLEKATADLKKVLAIDPKNRAAQEELGKVVIQGKNQDAGLAQGLRKMFG
